Measured values published in US20240298643A1, “BENZIMIDAZOLE COMPOUND OR SALT THEREOF, PREPARATION METHOD THEREFOR AND USE THEREOF, AND INSECTICIDE AND ACARICIDE AND USE THEREOF” (QINGDAO KANGQIAO PESTICIDES AND CHEMICALS GROUP CO., LTD., priority 2021, published 2024).
Some of these results come from one statement about several compounds together.

Test system: Tetranychus cinnabarinus
Assay: acaricidal activity test, spraying kidney bean seedlings inoculated with mites
Type: in vivo
Conditions: sprayed on kidney bean seedlings, living mites counted after 72 hours, 25° C.
Description: This test example tested the acaricidal activity of the compounds prepared above, in particular against Tetranychus cinnabarinus, and a specific test process was as follows: • (1) compounds to be tested were dissolved with acetone, and the resulting solution was diluted with a 0.1 wt % Tween 80 aqueous solution to a desired concentration (see test examples 1-A to 1-D below in detail) to prepare medicaments, with the acetone content of not more than 5 wt %; • (2) one real leaf was removed from kidney bean seedlings grown to two real leaves, and the number of mites inoculated was investigated 24 hours after inoculation of Tetranychus cinnabarinus (the number of Tetranychus cinnabarinus inoculated for each kidney bean seedling was 50-150). The whole plants of three kidney bean seedlings were separately sprayed with the medicaments prepared in the step (1) by using a hand-held sprayer (the spray amount was 0.5 mL per plant). After the treatment, the kidney bean seedlings were placed in a constant temperature observation room (25° C.) for observation, the number of living mites was investigated after 72 hours, and the lethality was calculated: Lethality (%)=(the number of mites inoculated−the number of living mites after the medicaments are sprayed)/the number of mites inoculated×100.

Row | SMILES | Lethality (100 mg/L) | Lethality (25 mg/L) | also measured
1 | CCS(=O)(=O)n1c(-c2cccc(C#N)c2)nc2ccccc21 [Compound 1-25] | more than 90% | – | –
2 | CCS(=O)(=O)n1c(-c2cccc(OC(F)(F)F)c2)nc2ccccc21 [Compound 1-26] | more than 90% | more than 90% | –
3 | CCS(=O)(=O)n1c(-c2ccc(F)c(C(F)(F)F)c2)nc2ccccc21 [Compound 1-27] | – | – | Lethality (6.25 mg/L, listed as compound 1-27): more than 90%; Lethality (25 mg/L, listed as compound 1-27): more than 90%; Lethality (100 mg/L, listed as compound 1-27): more than 90%
4 | CCS(=O)(=O)n1c(-c2ccc(Cl)c(C(F)(F)F)c2)nc2ccccc21 [Compound 1-28] | – | – | Lethality (6.25 mg/L, listed as compound 1-28): more than 90%; Lethality (25 mg/L, listed as compound 1-28): more than 90%; Lethality (100 mg/L, listed as compound 1-28): more than 90%
5 | CCS(=O)(=O)n1c(-c2ccc(Br)c(C(F)(F)F)c2)nc2ccccc21 [Compound 1-29] | more than 90% | more than 90% | –
6 | CCS(=O)(=O)n1c(-c2ccc(C)c(C(F)(F)F)c2)nc2ccccc21 [Compound 1-30] | more than 90% | more than 90% | –
7 | CCS(=O)(=O)n1c(-c2ccc(OCC(F)(F)F)c(C(F)(F)F)c2)nc2ccccc21 [Compound 1-31] | more than 90% | more than 90% | –
8 | CCS(=O)(=O)n1c(-c2ccc(OCC(F)(F)C(F)(F)F)c(C(F)(F)F)c2)nc2ccccc21 [Compound 1-32] | more than 90% | more than 90% | –
9 | CCS(=O)(=O)n1c(-c2ccc(F)c(F)c2)nc2ccccc21 [Compound 1-33] | more than 90% | – | –
10 | CCS(=O)(=O)n1c(-c2ccc(F)c(Cl)c2)nc2ccccc21 [Compound 1-34] | more than 90% | more than 90% | –
11 | CCS(=O)(=O)n1c(-c2ccc(Cl)c(Cl)c2)nc2ccccc21 [Compound 1-37] | more than 90% | more than 90% | –
12 | CCS(=O)(=O)n1c(-c2ccc(Cl)c(Br)c2)nc2ccccc21 [Compound 1-38] | more than 90% | more than 90% | –
13 | CCS(=O)(=O)n1c(-c2ccc(Br)c(Cl)c2)nc2ccccc21 [Compound 1-40] | more than 90% | – | –
14 | CCS(=O)(=O)n1c(-c2ccc(OCC(F)(F)F)c(F)c2)nc2ccccc21 [Compound 1-43] | more than 90% | – | –
15 | CCS(=O)(=O)n1c(-c2cc(C(F)(F)F)cc(C(F)(F)F)c2)nc2ccccc21 [Compound 1-47] | – | – | Lethality (6.25 mg/L, listed as compound 1-47): more than 90%; Lethality (25 mg/L, listed as compound 1-47): more than 90%; Lethality (100 mg/L, listed as compound 1-47): more than 90%
16 | CCS(=O)(=O)n1c(-c2cc(F)c(F)c(F)c2)nc2ccccc21 [Compound 1-49] | more than 90% | more than 90% | –
17 | CCS(=O)(=O)n1c(-c2ccc(F)c(F)c2)nc2cc(F)c(F)cc21 [Compound 1-50] | more than 90% | – | –
18 | CCS(=O)(=O)n1c(-c2ccc(F)c(Cl)c2)nc2cc(F)c(F)cc21 [Compound 1-51] | more than 90% | – | –
19 | CCS(=O)(=O)n1c(-c2ccc(F)c(Br)c2)nc2cc(F)c(F)cc21 [Compound 1-52] | more than 90% | – | –
20 | CCS(=O)(=O)n1c(-c2ccc(Cl)c(Cl)c2)nc2cc(F)c(F)cc21 [Compound 1-54] | more than 90% | – | –

Row | SMILES | Lethality (100 mg/L) | Lethality (25 mg/L) | also measured
21 | CCS(=O)(=O)n1c(-c2ccc(Cl)c(Br)c2)nc2cc(F)c(F)cc21 [Compound 1-55] | more than 90% | – | –
22 | CCS(=O)(=O)n1c(-c2ccc(F)c(C(F)(F)F)c2)nc2cc(F)c(F)cc21 [Compound 1-56] | – | – | Lethality (6.25 mg/L, listed as compound 1-56): more than 90%; Lethality (25 mg/L, listed as compound 1-56): more than 90%; Lethality (100 mg/L, listed as compound 1-56): more than 90%
23 | CCS(=O)(=O)n1c(-c2ccc(Cl)c(C(F)(F)F)c2)nc2cc(F)c(F)cc21 [Compound 1-57] | – | – | Lethality (6.25 mg/L, listed as compound 1-57): more than 90%; Lethality (25 mg/L, listed as compound 1-57): more than 90%; Lethality (100 mg/L, listed as compound 1-57): more than 90%
24 | CCS(=O)(=O)n1c(-c2cc(F)c(F)cc2F)nc2cc(F)c(F)cc21 [Compound 1-60] | more than 90% | – | –
25 | CCS(=O)(=O)n1c(-c2cc(F)c(F)c(F)c2)nc2cc(F)c(F)cc21 [Compound 1-61] | more than 90% | more than 90% | –
26 | CCS(=O)(=O)n1c(-c2ccc(F)c(F)c2)nc2cc(Cl)c(Cl)cc21 [Compound 1-62] | more than 90% | – | –
27 | CCS(=O)(=O)n1c(-c2ccc(F)c(C(F)(F)F)c2)nc2cc(Cl)c(Cl)cc21 [Compound 1-68] | more than 90% | more than 90% | –
28 | CCS(=O)(=O)n1c(-c2ccc(Cl)c(C(F)(F)F)c2)nc2cc(Cl)c(Cl)cc21 [Compound 1-69] | more than 90% | more than 90% | –
29 | CCS(=O)(=O)n1c(-c2cc(F)c(F)cc2F)nc2cc(Cl)c(Cl)cc21 [Compound 1-72] | more than 90% | – | –
30 | CCS(=O)(=O)n1c(-c2cc(F)c(F)c(F)c2)nc2cc(Cl)c(Cl)cc21 [Compound 1-73] | more than 90% | more than 90% | –
31 | CCS(=O)(=O)n1c(-c2ccc(Cl)c(C(F)(F)F)c2)nc2cc(C)c(C)cc21 [Compound 1-75] | more than 90% | – | –
32 | CCS(=O)(=O)n1c(-c2ccc(Br)c(C(F)(F)F)c2)nc2cc(C)c(C)cc21 [Compound 1-76] | more than 90% | – | –
33 | CCS(=O)(=O)n1c(-c2cc(C(F)(F)F)cc(C(F)(F)F)c2)nc2cc(C)c(C)cc21 [Compound 1-81] | more than 90% | – | –
34 | CS(=O)(=O)n1c(-c2cc(Cl)cc(C(F)(F)F)c2)nc2ccccc21 [Compound 1-133] | – | – | Lethality (6.25 mg/L, listed as compound 1-133): more than 90%; Lethality (25 mg/L, listed as compound 1-133): more than 90%; Lethality (100 mg/L, listed as compound 1-133): more than 90%
35 | CCS(=O)(=O)n1c(-c2cc(F)cc(C(F)(F)F)c2)nc2ccccc21 [Compound 1-174] | – | – | Lethality (6.25 mg/L, listed as compound 1-174): more than 90%; Lethality (25 mg/L, listed as compound 1-174): more than 90%; Lethality (100 mg/L, listed as compound 1-174): more than 90%
36 | CCS(=O)(=O)n1c(-c2cc(Br)cc(OC(F)(F)F)c2)nc2ccccc21 [Compound 1-186] | – | – | Lethality (6.25 mg/L, listed as compound 1-186): more than 90%; Lethality (25 mg/L, listed as compound 1-186): more than 90%; Lethality (100 mg/L, listed as compound 1-186): more than 90%
37 | CCS(=O)(=O)n1c(-c2cc(Cl)cc(C(F)(F)F)c2)nc2ccccc21 [Compound 1-213] | – | – | Lethality (6.25 mg/L, listed as compound 1-213): more than 90%; Lethality (25 mg/L, listed as compound 1-213): more than 90%; Lethality (100 mg/L, listed as compound 1-213): more than 90%
38 | CCS(=O)(=O)n1c(-c2cc(Br)cc(C(F)(F)F)c2)nc2ccccc21 [Compound 1-214] | – | – | Lethality (6.25 mg/L, listed as compound 1-214): more than 90%; Lethality (25 mg/L, listed as compound 1-214): more than 90%; Lethality (100 mg/L, listed as compound 1-214): more than 90%
39 | CCS(=O)(=O)n1c(-c2cc(C#N)cc(C(F)(F)F)c2)nc2ccccc21 [Compound 1-218] | – | – | Lethality (6.25 mg/L, listed as compound 1-218): more than 90%; Lethality (25 mg/L, listed as compound 1-218): more than 90%; Lethality (100 mg/L, listed as compound 1-218): more than 90%
